# This is one part of the list. Further columns of the screen follow, without active or inactive calls. Most of these compounds were active or inconclusive in the main read-out, so they are no random draw. The note in brackets gives the kind of curve behind each potency; many fits are weak.
# Assay: qHTS Assay for Lipid Storage Modulators in Drosophila S3 Cells;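 as to cell number change: cells counted by Cell Tracker Red CMTPX staining in the red channel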
# Settings: BODIPY lipid droplet fluorescence, 18-24 h; for cell number change: measured here: cell count max response, cells fed with added oleic acid
# Method in brief: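 Laser-scanning cytometry quantifies lipid droplet accumulation (500–530 nm total intensity; droplet/cell object ratio) in oleic acid-fed (400 uM added) Drosophila S3 cells treated with a concentration series. 20 uM Triacsin C defined 100% inhibition.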
# [1] = measured here: lipid fluorescence (Fed channel) AC50, cells fed with added oleic acid
# [2] = measured here: cell number channel AC50, cells fed with added oleic acid
smiles,measurement,setting,value
Cc1ccc(-n2nc3c(c2NC(=O)c2ccc4c(c2)OCO4)CS(=O)C3)cc1 (stereo not given),cell number change,,28.6%
same,AC50,[1],"0.00461 µM [falling, full curve, poor fit]"
CCCCn1c(N)c(N(CCOC)C(=O)c2ccc(C)o2)c(=O)[nH]c1=O,cell number change,,-0.462%
same,AC50,[1],"16.4 µM [falling, partial curve, poor fit]"
C=CCNC(=S)Nc1sc2c(c1C(=O)OCC)CCN(C(=O)OCC)C2,cell number change,,1.03%
same,AC50,[1],"2.31 µM [rising, partial curve]"
Cc1ccc(CNC(=O)COC(=O)c2ccc(S(=O)(=O)N3CCCCCC3)cc2)cc1,cell number change,,-99.7%
same,AC50,[2],"20.6 µM [falling, partial curve]"
Oc1ccc(/C=N/NC(=S)NCCN2CCOCC2)c(O)c1,cell number change,,-20.5%
same,AC50,[2],"6.51 µM [falling, single point]"
same,AC50,[1],"3.66 µM [falling, full curve]"
COC(=O)c1sc(NC(=O)Cc2cccs2)nc1C,cell number change,,97.5%
same,AC50,[2],"0.0731 µM [rising, full curve, poor fit]"
COc1ccc(Cl)cc1CSc1n[nH]c(C)n1,cell number change,,-3.61%
same,AC50,[1],"29.1 µM [rising, single point]"
COc1cccc(NC(=O)C(C)N2C(=O)c3ccccc3S2(=O)=O)c1 (stereo not given),cell number change,,15.2%
same,AC50,[1],"0.326 µM [falling, partial curve, poor fit]"
CN(Cc1nccs1)C(=O)c1ccc(OC2CCN(Cc3ccccn3)CC2)cc1,cell number change,,-14.4%
same,AC50,[1],"29.1 µM [rising, single point]"
CN(C)C(=O)c1ccc(NC(=O)COc2cccc3c2OC(C)(C)C3)cc1,cell number change,,15.3%
Cc1cccc(NS(=O)(=O)c2ccc3c(c2)NC(=O)CC(=O)N3)c1,cell number change,,-28.3%
same,AC50,[2],"0.184 µM [rising, full curve, poor fit]"
O=C1CS/C(=N/N=C/c2cccs2)N1,AC50,[1],"29.1 µM [rising, single point]"
C1CCc2c(nnc3c2-c2nonc2CC3)C1,cell number change,,-45.1%
same,AC50,[2],"29.1 µM [falling, single point]"
same,AC50,[1],"18.4 µM [falling, single point]"
Cc1nc2nc(-c3ccc(F)cc3)cn2nc1C,cell number change,,13.9%
COc1ccc(NC(=O)CN2CCN(Cc3ccc4c(c3)OCO4)CC2)cc1OC,cell number change,,34.7%
same,AC50,[2],"6.51 µM [rising, partial curve, poor fit]"
O=C(CSc1nc2ccccc2n1S(=O)(=O)c1ccccc1)N1CCCC1,cell number change,,16.8%
same,AC50,[1],"0.58 µM [rising, full curve, poor fit]"
CCN(C(=O)c1cc2c(s1)-c1ccccc1OC2)c1cc(OC)ccc1OC,cell number change,,7.78%
same,AC50,[1],"0.092 µM [rising, full curve, poor fit]"
CC(=O)Nc1c(O)nc(SCC(=O)N2CCN(c3ccc(F)cc3)CC2)[nH]c1=O,cell number change,,0.199%
same,AC50,[2],"0.103 µM [falling, full curve, poor fit]"
same,AC50,[1],"0.651 µM [falling, full curve]"
COc1ccccc1OCC(=O)N1CCCC(Nc2cccc(F)c2)C1 (stereo not given),cell number change,,-12.9%
same,AC50,[1],"0.58 µM [rising, single point]"
CC1CCC(=NNc2ccc(C(F)(F)F)cc2[N+](=O)[O-])CC1 (stereo not given),cell number change,,1.1%
same,AC50,[1],"13 µM [falling, partial curve]"
CN(C(=O)COC(=O)c1ccc([N+](=O)[O-])cc1N)c1ccccc1,cell number change,,-11.5%
same,AC50,[1],"29.1 µM [falling, single point]"
CCCCCc1nc2ccccc2c(=O)n1N,cell number change,,-69.3%
same,AC50,[2],"8.2 µM [falling, partial curve]"
O=C(OCc1cncs1)c1ccccc1,cell number change,,-21.2%
same,AC50,[1],"29.1 µM [falling, single point]"
Nc1ncnc(Oc2cccc(C(F)(F)F)c2)c1[N+](=O)[O-],cell number change,,-9.05%
Cc1ccccc1NC(=O)COC(=O)c1c(-c2ccccc2)noc1C,cell number change,,-8.34%
same,AC50,[1],"6.51 µM [rising, full curve]"
Cc1ccnc(NS(=O)(=O)c2ccc(NC(=O)C34CC5CC(CC(C5)C3)C4)cc2)n1,cell number change,,-14%
same,AC50,[2],"0.731 µM [falling, partial curve, poor fit]"
same,AC50,[1],"0.0259 µM [falling, full curve, poor fit]"
CC(=O)N1CCN(CC(=O)Nc2cccc(S(=O)(=O)N3CCCCCC3)c2)CC1,cell number change,,17.5%
CCN1CCN(CCCN(Cc2cccs2)C(=S)Nc2ccccc2C)CC1,cell number change,,87%
same,AC50,[2],"29.1 µM [rising, single point]"
same,AC50,[1],"23.1 µM [rising, single point]"
COc1ccc(-c2nnc(Nc3nc4c(OC)cccc4s3)o2)c(OC)c1,cell number change,,-23.3%
same,AC50,[1],"23.1 µM [falling, single point]"
Cc1cccc2cc(COC(=O)C(C)C)c(=O)[nH]c12,cell number change,,-14.2%
same,AC50,[1],"9.2 µM [rising, partial curve]"
COc1ccc(NC(=O)N/C=C/c2ccco2)cc1,AC50,[2],"0.164 µM [falling, full curve, poor fit]"
C/C=C(\C)C(=O)O[C@H](c1cc2ccc(=O)oc2cc1OC)[C@@H](O)C(C)(C)O,cell number change,,8.66%
same,AC50,[1],"20.6 µM [rising, single point]"
NC(=O)C1CCN(C(=O)COc2ccc3c4c(c(=O)oc3c2)CCC4)CC1,cell number change,,37.2%
same,AC50,[1],"3.26 µM [rising, single point]"
COc1ccc(OC)c(C2CC(=O)N3CN(c4ccccc4)CSC3=C2C#N)c1 (stereo not given),cell number change,,-10.4%
CC1(C)CC(=O)C2=C(C1)Oc1ncn(CCCn3ccnc3)c(=N)c1C2c1ccccc1 (stereo not given),cell number change,,0.329%
same,AC50,[2],"0.092 µM [rising, full curve, poor fit]"
O=C(CCNC(=O)N1CCn2c1nc1ccccc12)NCc1ccc(Cl)cc1,cell number change,,12.9%
same,AC50,[1],"29.1 µM [rising, single point]"
Cc1ccc(NC(=O)CN(C)C(=O)c2ccc(Cl)c([N+](=O)[O-])c2)cc1,cell number change,,-28.7%
same,AC50,[1],"29.1 µM [falling, partial curve, poor fit]"
CCOP(=O)(OCC)c1ccccc1OCP(C)(=O)COc1ccccc1P(=O)(OCC)OCC,cell number change,,-14.8%
same,AC50,[1],"6.51 µM [falling, single point]"
COc1ccccc1/C=N/NC(=O)c1cc2c(ccc3ccccc32)o1,cell number change,,14.4%
same,AC50,[1],"29.1 µM [falling, single point]"
CSc1nc(N)nc(SCC(=O)CC(=O)OC(C)C)c1C#N,cell number change,,214%
same,AC50,[2],"20.6 µM [rising, single point]"
CN1c2ccccc2C(C)(C)[C@]12C=Cc1cc(O)ccc1O2,cell number change,,-93.4%
same,AC50,[2],"23.1 µM [falling, partial curve]"
CCOc1cc(N2CCOCC2)c(OCC)cc1NC(=O)C(C)(C)C,cell number change,,-9.2%
same,AC50,[2],"0.651 µM [rising, single point]"
same,AC50,[1],"0.461 µM [rising, partial curve, poor fit]"
COc1cccc(NC(=O)CN(c2ccccc2OC)S(=O)(=O)c2cccs2)c1,cell number change,,3.73%
same,AC50,[2],"1.64 µM [falling, partial curve]"
same,AC50,[1],"1.84 µM [falling, partial curve, poor fit]"
O=C(COc1ccc2ccc(=O)oc2c1)OCc1ccccc1,cell number change,,33.3%
CC(C)(C)NC(=S)Nc1ccc(Nc2ccccc2)cc1,cell number change,,-25.1%
same,AC50,[1],"1.46 µM [falling, partial curve, poor fit]"
COc1ccc(-c2nc(CN3CCC(C(=O)NC4CCN(Cc5ccccc5)CC4)CC3)c(C)o2)cc1OC,cell number change,,-8.26%
CCOc1ccc(CN(CC)C(=O)c2ccc3c(c2)[nH]c(=O)c(=O)n3CC)cc1OC,cell number change,,4.76%
same,AC50,[1],"29.1 µM [falling, single point]"
CC(C)(C)C(=O)Nc1ccc(C(=O)COC(=O)C2=COCCO2)cc1,cell number change,,-29.7%
COc1ccc(OC)c(C(=O)NC(CC(N)=O)c2ccc(N3CCN(c4ccccn4)CC3)c([N+](=O)[O-])c2)c1 (stereo not given),cell number change,,6.89%
O=C1c2ccccc2C(Nc2ccccc2F)N1c1cccnc1 (stereo not given),cell number change,,-8.57%
same,AC50,[1],"0.651 µM [falling, full curve, poor fit]"
CC(=O)c1cccc(N(CC(=O)N2CCCC2)S(C)(=O)=O)c1,cell number change,,-70.3%
same,AC50,[2],"29.1 µM [falling, single point]"
CCOC(=O)c1nnsc1NC(=O)Nc1ccc(OC)cc1,AC50,[2],"1.64 µM [falling, partial curve, poor fit]"
O=C(NCC1CCCO1)C(c1cccs1)N(C(=O)c1ccc(CN2CCOCC2)o1)c1ccc(Cl)cc1 (stereo not given),cell number change,,-26.7%
same,AC50,[1],"23.1 µM [falling, single point]"
COc1ccc(N2CCN(C3CCCN(Cc4ccccc4OCCO)C3)CC2)cc1 (stereo not given),AC50,[1],"0.651 µM [falling, single point]"
COC(=O)c1sccc1NC(=O)c1ccc(OC)c(OC)c1,AC50,[2],"3.66 µM [rising, single point]"
same,AC50,[1],"5.8 µM [rising, full curve]"
CC(C)c1ccc(N(CC(=O)NCc2ccc(F)cc2)C(=O)c2snc(C(N)=O)c2N)cc1,cell number change,,60%
same,AC50,[2],"29.1 µM [rising, single point]"
same,AC50,[1],"29.1 µM [rising, single point]"
COc1ccc2oc(=O)c(C(=O)N3CCCC3)cc2c1,cell number change,,-1.2%
same,AC50,[1],"0.92 µM [falling, single point]"
Cc1ccc(C(=O)NCc2ccco2)cc1,cell number change,,3.17%
same,AC50,[1],"16.4 µM [rising, single point]"
Oc1ccccc1-c1nc2c3ccccc3c3ccccc3c2[nH]1,cell number change,,-8.05%
same,AC50,[1],"29.1 µM [falling, single point]"
COc1cc(CN2CCC(CO)(Cc3cccc(C(F)(F)F)c3)CC2)ccc1F,cell number change,,-12.8%
same,AC50,[1],"16.4 µM [falling, single point]"

# A portion from further up, for reference:
smiles,measurement,setting,value
COc1ccc(N2CCN(C3CCCN(Cc4ccccc4OCCO)C3)CC2)cc1 (stereo not given),AC50,[1],"0.651 µM [falling, single point]"
COC(=O)c1sccc1NC(=O)c1ccc(OC)c(OC)c1,AC50,[2],"3.66 µM [rising, single point]"
same,AC50,[1],"5.8 µM [rising, full curve]"

# Rewritten with bars between the fields: entries from further up
smiles | measurement | setting | value
C1CCc2c(nnc3c2-c2nonc2CC3)C1 | AC50 | [1] | 18.4 µM [falling, single point]
Cc1nc2nc(-c3ccc(F)cc3)cn2nc1C | cell number change |  | 13.9%
COc1ccc(NC(=O)CN2CCN(Cc3ccc4c(c3)OCO4)CC2)cc1OC | cell number change |  | 34.7%
same | AC50 | [2] | 6.51 µM [rising, partial curve, poor fit]

# Source: PubChem BioAssay AID2685 (National Center for Advancing Translational Sciences (NCATS), 2010)
